Source: PubChem BioAssay AID1347156 (National Center for Advancing Translational Sciences (NCATS), 2019)
Inconclusive results, whose numbers are uncertain, are shown with a selection of clear calls. Where the call is inconclusive, the potency comes from a doubtful curve fit. Active and inactive are the calls of the source. The call rests on the fitted dose curve; in most records, active means well fitted cell-killing curve with a large enough effect; inconclusive means small, poorly fitted or top-dose-only effect; inactive means flat fitted curve, though single readings scatter.
On the % scale 0 is the no-effect control and ±100 the full control effect; potency means the concentration at half of the fitted maximal effect.

Assay: DAPI mCherry counterscreen qHTS for Zika virus inhibitors; further: nearly all actives have a fitted effect of over 55% in size
Settings: Vero cells, DAPI nuclear count cytotoxicity, imaging 48-72 h, infected with Zika reporter virus, MOI 1; activity change, negative = cell loss: at 32.6 µM (top of the series) unless noted
Method in brief: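 Imaging read-out after fixation and Hoechst nuclear staining: percent infection from mCherry-positive cells (above 3 SD of negative controls) and nuclear counts. Setup: Vero cells pre-plated overnight, compound added, infected with ZIKV-mCherry (MOI 1), 48-72 hrs, 37 degrees C.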
For `CC(C)C(=O)c1cn(CC(=O)COc2ccc(Oc3ccccc3)cc2)c2ccc(C(=O)O)cc12`, the Potency was inconclusive: 35.5 µM [cytotoxic, partial curve]. With `O=C(O)Cn1nnc(-c2ccc(OCc3cccc(C(F)(F)F)c3)cc2)n1` the “activity change, negative = cell loss” value was inactive: -10.2%. For `Cc1nc(Nc2ncc(C(=O)Nc3c(C)cccc3Cl)s2)cc(N2CCN(CCO)CC2)n1`, the activity change, negative = cell loss was inconclusive: -97% [at 326 µM]. With `COc1ccccc1C(=O)Nc1ccc(C(=O)OCc2cc(=O)n3c4c(sc3n2)CCCC4)cc1` the Potency was inconclusive: 20 µM [cytotoxic, full curve, poor fit]. In the case of `CC(=O)Oc1cc2c(c(C)c1OC(C)=O)CC=C1[C@@]2(C)CC[C@@]2(C)[C@H]3C[C@](C)(C(=O)O)CC[C@]3(C)CC[C@]12C`, the Potency is reported as active: 2.82 µM. With `CC1(C)CC2=C3C=CC4C5(C)CCC(O)C(C)(C)C5CCC4(C)C3(C)CCC2(C)C(O)C1` (configuration not stated) the Potency was inconclusive: 22.4 µM [cytotoxic, partial curve, poor fit]. With `COc1cccc(OC)c1-c1cc(C(=O)N[C@@H](CC(C)C)C(=O)O)nn1-c1ccnc2cc(Cl)ccc12` the Potency was inconclusive: 35.5 µM [cytotoxic, partial curve, poor fit]. In the case of `O=C(Nc1ccc(C(=O)Nc2ccc(C(=O)Nc3ccc(S(=O)(=O)O)c4cc(S(=O)(=O)O)cc(S(=O)(=O)O)c34)cc2)cc1)Nc1ccc(C(=O)Nc2ccc(C(=O)Nc3ccc(S(=O)(=O)O)c4cc(S(=O)(=O)O)cc(S(=O)(=O)O)c34)cc2)cc1`, the Potency is reported as inconclusive: 2 µM [cytotoxic, full curve, poor fit]. With `Cc1c(NS(=O)(=O)c2ccccc2)cc(C(C)C)c(O)c1S(=O)(=O)c1ccc(Cl)cc1` the Potency was active: 28.2 µM. With `CCCc1c(OCCCOc2ccc(OCC(=O)O)cc2)ccc(C(C)=O)c1O` the Potency was inconclusive: 35.5 µM [cytotoxic, partial curve]. In the case of `O=C(O)c1cc(-c2ccc(C(F)(F)F)cc2)nc2n[nH]c(-c3ccccc3)c12`, the “activity change, negative = cell loss” value is reported as inactive: -12.5%. In the case of `C=C1c2c(Cl)ccc(O)c2C(O)=C2C(=O)[C@]3(O)C(O)=C(C(N)=O)C(=O)[C@@H](N(C)C)[C@@H]3[C@@H](O)C12` (some centres not stated), the Potency is reported as inconclusive: 15.8 µM [cytotoxic, full curve].
